# In US9968659B2 (Novo Nordisk A/S, priority 2016, dated 2018):
# At least one compound was matched to its structure with a doubt left.
# Test system: adult human subjects with type 2 diabetes that were at high risk for cardiovascular events
# Experiment: Long-term randomised double-blind placebo-controlled cardiovascular outcomes trial of liraglutide (9340 subjects)
# Type: in vivo
structure (smiles),measurement,setting,value
"CCCCCCCCCCCCCCCC(=O)N[C@@H](CCC(=O)NCCCC[C@H](NC(=O)[C@H](C)NC(=O)[C@H](C)NC(=O)[C@H](CCC(N)=O)NC(=O)CNC(=O)[C@H](CCC(=O)O)NC(=O)[C@H](CC(C)C)NC(=O)[C@H](Cc1ccc(O)cc1)NC(=O)[C@H](CO)NC(=O)[C@H](CO)NC(=O)[C@@H](NC(=O)[C@H](CC(=O)O)NC(=O)[C@H](CO)NC(=O)[C@@H](NC(=O)[C@H](Cc1ccccc1)NC(=O)[C@@H](NC(=O)CNC(=O)[C@H](CCC(=O)O)NC(=O)[C@H](C)NC(=O)[C@@H](N)Cc1cnc[nH]1)[C@@H](C)O)[C@@H](C)O)C(C)C)C(=O)N[C@@H](CCC(=O)O)C(=O)N[C@@H](Cc1ccccc1)C(=O)N[C@H](C(=O)N[C@@H](C)C(=O)N[C@@H](Cc1c[nH]c2ccccc12)C(=O)N[C@@H](CC(C)C)C(=O)N[C@H](C(=O)N[C@@H](CCCNC(=N)N)C(=O)NCC(=O)N[C@@H](CCCNC(=N)N)C(=O)NCC(=O)O)C(C)C)[C@@H](C)CC)C(=O)O [Liraglutide, Arg34,Lys26-(N-epsilon-(gamma-L-glutamyl(N-alfa-hexadecanoyl)))-GLP-1(7-37)]","First MACE, N (number of subjects)","MACE = CV death, non-fatal MI, non-fatal stroke, liraglutide arm (4668 subjects, FAS)",607
same,"First MACE, % (proportion of subjects)","MACE = CV death, non-fatal MI, non-fatal stroke, liraglutide arm, FAS",13.0%
same,Estimated risk reduction of experiencing CV death,"at any given point in time compared to placebo, from HR 0.78",22%
same,"All-cause death, %","liraglutide arm, FAS",8.1%
same,"Non-CV death, %","liraglutide arm, FAS",3.5%
same,"Non-fatal MI, %","liraglutide arm, FAS",6.0%
same,"Non-fatal stroke, %","liraglutide arm, FAS",3.4%
